Results: the supplement of paper PMC10849652
This is one part of the list.

Chains of the proteins cited; added tags and fusions are not shown. Lines headed by an entry give the natural chain unless they say otherwise; changes in a name come on top.
UniProt Q96DT6: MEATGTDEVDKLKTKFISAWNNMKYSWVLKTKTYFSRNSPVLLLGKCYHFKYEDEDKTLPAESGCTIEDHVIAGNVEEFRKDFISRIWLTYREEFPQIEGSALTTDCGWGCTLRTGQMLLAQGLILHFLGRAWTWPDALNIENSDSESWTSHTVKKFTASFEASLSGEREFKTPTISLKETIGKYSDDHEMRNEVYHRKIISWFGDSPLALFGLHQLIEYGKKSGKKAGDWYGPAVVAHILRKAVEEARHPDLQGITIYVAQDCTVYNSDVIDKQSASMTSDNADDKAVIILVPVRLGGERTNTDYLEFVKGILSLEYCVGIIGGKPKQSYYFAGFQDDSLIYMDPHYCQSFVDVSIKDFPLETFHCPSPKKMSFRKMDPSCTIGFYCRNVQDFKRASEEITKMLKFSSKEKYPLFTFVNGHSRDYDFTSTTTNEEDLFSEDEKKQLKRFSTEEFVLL
UniProt O75915: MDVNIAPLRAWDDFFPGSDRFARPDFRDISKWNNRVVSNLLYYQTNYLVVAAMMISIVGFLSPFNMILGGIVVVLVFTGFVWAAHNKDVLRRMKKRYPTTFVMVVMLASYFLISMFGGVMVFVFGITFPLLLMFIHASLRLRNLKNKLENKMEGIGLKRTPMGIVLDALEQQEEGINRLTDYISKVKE
UniProt O95260: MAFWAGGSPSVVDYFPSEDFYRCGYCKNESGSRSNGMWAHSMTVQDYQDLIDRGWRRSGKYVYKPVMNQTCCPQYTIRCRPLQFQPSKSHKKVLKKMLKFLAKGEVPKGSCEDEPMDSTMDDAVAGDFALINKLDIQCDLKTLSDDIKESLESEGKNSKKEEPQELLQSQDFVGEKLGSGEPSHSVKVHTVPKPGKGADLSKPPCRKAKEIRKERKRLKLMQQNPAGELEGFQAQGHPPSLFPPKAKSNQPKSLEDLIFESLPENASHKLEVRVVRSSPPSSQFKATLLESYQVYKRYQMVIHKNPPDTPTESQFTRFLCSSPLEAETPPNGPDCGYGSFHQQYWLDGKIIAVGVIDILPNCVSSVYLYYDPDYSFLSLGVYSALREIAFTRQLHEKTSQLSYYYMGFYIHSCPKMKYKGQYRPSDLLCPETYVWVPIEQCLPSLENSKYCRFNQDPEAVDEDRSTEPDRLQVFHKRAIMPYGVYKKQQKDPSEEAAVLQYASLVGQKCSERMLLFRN
UniProt P27540, whole entry, looked up: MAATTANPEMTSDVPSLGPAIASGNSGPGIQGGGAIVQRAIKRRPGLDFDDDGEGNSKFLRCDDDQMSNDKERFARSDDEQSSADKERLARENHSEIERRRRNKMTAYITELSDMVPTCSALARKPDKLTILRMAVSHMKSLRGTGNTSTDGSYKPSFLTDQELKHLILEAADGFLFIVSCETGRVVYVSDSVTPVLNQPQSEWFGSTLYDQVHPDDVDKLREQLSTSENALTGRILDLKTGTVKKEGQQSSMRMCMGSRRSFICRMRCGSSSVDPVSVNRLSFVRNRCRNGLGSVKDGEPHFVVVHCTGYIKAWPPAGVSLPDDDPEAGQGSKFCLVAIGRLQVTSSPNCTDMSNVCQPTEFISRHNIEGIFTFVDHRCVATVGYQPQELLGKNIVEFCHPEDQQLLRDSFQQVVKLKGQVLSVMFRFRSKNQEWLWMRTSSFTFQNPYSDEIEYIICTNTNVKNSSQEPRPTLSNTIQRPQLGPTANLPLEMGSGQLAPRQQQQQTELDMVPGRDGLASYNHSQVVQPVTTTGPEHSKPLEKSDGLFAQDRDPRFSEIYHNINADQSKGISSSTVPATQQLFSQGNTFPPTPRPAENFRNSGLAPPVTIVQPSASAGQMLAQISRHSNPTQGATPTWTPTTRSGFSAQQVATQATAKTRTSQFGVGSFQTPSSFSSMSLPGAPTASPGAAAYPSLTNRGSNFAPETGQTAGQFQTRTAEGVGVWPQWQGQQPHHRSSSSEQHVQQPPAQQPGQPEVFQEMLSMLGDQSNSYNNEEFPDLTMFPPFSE
UniProt P18859: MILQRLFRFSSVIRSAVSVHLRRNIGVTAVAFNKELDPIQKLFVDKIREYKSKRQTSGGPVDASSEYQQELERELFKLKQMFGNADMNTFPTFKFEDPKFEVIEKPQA
UniProt O95376: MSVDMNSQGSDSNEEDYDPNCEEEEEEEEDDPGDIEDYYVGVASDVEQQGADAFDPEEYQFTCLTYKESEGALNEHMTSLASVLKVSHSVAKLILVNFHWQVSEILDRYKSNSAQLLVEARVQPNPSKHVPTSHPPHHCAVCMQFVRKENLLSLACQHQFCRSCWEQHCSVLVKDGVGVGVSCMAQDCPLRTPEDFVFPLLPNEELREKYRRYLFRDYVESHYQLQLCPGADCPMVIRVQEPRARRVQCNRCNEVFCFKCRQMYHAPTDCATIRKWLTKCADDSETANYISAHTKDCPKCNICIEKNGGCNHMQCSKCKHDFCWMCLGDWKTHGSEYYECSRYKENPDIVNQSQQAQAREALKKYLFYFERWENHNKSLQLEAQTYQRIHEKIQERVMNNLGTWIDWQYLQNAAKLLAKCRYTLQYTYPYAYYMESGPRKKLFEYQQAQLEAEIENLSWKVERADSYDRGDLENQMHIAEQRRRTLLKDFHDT
UniProt Q9UH62: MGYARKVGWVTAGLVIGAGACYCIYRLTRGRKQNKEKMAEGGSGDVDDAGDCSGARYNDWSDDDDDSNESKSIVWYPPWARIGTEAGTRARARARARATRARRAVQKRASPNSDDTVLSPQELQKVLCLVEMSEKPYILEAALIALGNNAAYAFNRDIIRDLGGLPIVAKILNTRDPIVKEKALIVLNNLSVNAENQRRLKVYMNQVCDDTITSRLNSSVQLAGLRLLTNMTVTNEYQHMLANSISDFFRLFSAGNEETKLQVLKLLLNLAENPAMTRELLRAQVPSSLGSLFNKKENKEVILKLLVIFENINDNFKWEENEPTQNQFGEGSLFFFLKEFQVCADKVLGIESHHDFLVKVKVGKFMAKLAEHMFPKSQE
UniProt Q15041, whole entry, looked up: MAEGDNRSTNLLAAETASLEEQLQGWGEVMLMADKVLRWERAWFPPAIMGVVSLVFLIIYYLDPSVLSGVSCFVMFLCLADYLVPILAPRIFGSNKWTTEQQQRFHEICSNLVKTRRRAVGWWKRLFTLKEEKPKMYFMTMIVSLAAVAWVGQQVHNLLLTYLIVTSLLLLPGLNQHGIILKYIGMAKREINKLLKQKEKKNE
UniProt O94817, whole entry, looked up: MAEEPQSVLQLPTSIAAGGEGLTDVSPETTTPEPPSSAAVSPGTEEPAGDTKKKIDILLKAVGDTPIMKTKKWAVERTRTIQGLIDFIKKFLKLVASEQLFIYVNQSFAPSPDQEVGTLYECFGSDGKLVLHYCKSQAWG
UniProt O43681: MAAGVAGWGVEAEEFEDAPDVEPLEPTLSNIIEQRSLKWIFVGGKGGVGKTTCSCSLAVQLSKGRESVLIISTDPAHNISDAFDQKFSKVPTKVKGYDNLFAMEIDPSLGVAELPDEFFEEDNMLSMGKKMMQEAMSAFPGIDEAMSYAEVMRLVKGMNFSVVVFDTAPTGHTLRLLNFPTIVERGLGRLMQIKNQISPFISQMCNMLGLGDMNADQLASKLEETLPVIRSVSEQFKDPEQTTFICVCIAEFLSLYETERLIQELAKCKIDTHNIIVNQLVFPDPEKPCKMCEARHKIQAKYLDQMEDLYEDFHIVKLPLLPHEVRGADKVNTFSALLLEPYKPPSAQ
UniProt P54259: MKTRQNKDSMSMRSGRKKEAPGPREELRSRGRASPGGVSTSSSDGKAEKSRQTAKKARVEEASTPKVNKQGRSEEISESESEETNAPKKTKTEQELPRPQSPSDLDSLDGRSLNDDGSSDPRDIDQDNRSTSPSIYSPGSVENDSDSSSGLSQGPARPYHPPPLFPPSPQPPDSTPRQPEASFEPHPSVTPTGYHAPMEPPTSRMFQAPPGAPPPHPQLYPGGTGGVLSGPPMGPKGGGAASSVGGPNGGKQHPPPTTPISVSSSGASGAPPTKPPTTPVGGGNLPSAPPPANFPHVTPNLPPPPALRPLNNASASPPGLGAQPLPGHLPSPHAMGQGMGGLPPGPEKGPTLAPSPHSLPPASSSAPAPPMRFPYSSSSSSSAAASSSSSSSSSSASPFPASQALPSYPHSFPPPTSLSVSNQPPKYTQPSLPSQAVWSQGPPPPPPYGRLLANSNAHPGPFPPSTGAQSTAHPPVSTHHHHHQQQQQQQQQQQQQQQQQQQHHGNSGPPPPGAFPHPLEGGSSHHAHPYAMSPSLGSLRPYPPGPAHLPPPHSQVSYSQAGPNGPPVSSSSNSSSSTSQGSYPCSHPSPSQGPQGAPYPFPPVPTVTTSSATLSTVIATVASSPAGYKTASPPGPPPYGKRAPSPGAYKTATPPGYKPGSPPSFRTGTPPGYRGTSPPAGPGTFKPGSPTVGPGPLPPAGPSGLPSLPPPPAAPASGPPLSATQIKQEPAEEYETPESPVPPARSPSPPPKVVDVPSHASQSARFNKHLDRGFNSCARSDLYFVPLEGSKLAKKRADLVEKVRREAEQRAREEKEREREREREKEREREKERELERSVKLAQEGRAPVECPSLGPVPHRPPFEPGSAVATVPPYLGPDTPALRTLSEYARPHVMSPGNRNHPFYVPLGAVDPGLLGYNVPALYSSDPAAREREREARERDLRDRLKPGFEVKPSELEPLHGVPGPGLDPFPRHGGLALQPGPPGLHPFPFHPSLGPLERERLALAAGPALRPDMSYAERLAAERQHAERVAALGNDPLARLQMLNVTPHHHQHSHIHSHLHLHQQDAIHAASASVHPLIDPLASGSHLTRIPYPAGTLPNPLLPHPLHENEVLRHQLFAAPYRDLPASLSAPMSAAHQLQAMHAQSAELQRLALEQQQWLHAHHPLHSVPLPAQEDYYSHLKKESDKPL
UniProt P56381: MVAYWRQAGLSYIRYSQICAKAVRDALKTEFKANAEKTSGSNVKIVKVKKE
UniProt P48047: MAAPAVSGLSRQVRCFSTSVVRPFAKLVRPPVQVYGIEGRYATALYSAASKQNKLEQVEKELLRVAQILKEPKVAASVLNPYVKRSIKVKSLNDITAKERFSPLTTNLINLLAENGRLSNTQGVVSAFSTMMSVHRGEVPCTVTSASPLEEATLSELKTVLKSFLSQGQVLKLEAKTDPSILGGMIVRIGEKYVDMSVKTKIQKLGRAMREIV
UniProt Q6ZNE5, whole entry, looked up: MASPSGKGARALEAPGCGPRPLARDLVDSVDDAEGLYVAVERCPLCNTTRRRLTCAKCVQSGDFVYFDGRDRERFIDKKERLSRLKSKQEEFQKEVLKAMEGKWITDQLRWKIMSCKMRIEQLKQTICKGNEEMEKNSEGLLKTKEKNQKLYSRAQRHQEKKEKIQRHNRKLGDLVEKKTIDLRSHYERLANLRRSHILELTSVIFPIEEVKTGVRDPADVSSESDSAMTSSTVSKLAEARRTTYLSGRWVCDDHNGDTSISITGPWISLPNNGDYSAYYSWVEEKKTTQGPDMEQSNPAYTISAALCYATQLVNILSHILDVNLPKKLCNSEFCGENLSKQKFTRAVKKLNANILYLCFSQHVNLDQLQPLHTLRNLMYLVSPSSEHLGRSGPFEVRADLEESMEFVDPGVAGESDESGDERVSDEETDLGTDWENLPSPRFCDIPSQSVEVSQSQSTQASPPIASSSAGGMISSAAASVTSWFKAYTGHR
UniProt P21281, whole entry, looked up: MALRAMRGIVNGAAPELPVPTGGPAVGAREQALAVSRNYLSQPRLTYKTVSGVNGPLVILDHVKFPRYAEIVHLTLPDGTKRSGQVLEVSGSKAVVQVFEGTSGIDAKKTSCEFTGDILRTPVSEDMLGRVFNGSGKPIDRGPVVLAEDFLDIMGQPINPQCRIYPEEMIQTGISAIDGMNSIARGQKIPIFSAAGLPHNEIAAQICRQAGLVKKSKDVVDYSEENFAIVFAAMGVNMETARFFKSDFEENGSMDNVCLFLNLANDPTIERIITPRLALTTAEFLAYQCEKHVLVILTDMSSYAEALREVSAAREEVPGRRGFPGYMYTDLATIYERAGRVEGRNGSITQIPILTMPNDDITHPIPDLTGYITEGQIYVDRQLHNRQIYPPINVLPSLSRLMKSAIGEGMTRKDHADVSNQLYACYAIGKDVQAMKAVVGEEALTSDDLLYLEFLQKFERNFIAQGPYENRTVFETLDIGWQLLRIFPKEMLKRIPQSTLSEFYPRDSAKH
UniProt Q9Y689: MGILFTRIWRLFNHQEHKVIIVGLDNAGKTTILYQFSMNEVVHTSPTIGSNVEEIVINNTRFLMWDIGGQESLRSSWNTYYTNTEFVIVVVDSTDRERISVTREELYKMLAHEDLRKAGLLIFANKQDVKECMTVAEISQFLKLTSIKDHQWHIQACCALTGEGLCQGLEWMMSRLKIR
UniProt Q8N5M1: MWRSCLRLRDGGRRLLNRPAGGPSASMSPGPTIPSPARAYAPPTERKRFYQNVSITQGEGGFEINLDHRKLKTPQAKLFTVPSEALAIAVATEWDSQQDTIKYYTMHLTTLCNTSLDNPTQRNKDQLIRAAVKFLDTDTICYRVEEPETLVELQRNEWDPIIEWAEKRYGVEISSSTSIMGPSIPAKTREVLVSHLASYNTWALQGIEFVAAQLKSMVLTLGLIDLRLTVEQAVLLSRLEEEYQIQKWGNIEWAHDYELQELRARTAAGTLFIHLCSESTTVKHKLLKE

compound: CS(=O)(=O)c1ccc(-c2cnc(N)c(C(=O)Nc3ccccc3)n2)cc1; experiment: log2 fold change, soluble protein after heating vs DMSO (PISA); higher = thermal stabilisation; K562 cells, 10 uM, 30 min; active = over 0.2 and 3.5 SD of the protein, either way, in both replicates (recomputed)
In short: (§1)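 Thermal stability values are relative to control samples and come from duplicates. They are expressed as log2 fold changes. For measurement, K562 cells (2×10^6 cells/mL) received 10 μM compound for 30 min, and aliquots were heated for 3 min over 48°C-58°C, pooled, and extracted at 4°C in PBS with 0.5% NP-40. Soluble protein, the supernatant after 21,000xg for 90 min, was quantified by TMTpro 16plex LC-MS/MS with equalised channel sums.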

Target | log2 fold change
ATG4C (UniProt Q96DT6) | inactive: 0.059
ARL6IP5 (UniProt O75915) | inactive: -0.021
ATE1 isoform 2 (UniProt O95260) | inactive: 0.068
ATP5MPL (UniProt P56378) | inactive: 0.002
ATP13A1 (UniProt Q9HD20) | inactive: 0.008
ARNT (UniProt P27540) | inactive: 0.005
ATP5PF isoform 2 (UniProt P18859) | inactive: 0.098
ATP2A2 (UniProt P16615) | inactive: -0.005
ARIH2 (UniProt O95376) | inactive: 0.023
ATP7A isoform 3 (UniProt Q04656) | inactive: -0.012
ATP5F1C (UniProt P36542) | inactive: -0.002
ARMCX3 (UniProt Q9UH62) | inactive: 0.017
ARL6IP1 (UniProt Q15041) | inactive: -0.063
ASDURF (UniProt L0R819) | inactive: -0.004
ATG12 (UniProt O94817) | inactive: 0.034
ASNA1 (UniProt O43681) | inactive: -0.035
ATP5PD (UniProt O75947) | inactive: 0.013
ASMTL (UniProt O95671) | inactive: 0.018
ATN1 (UniProt P54259) | inactive: 0.002

Target | log2 fold change
ARL2 (UniProt P36404) | inactive: -0.007
ASAP1 isoform 2 (UniProt Q9ULH1) | inactive: -0.032
ATP6V0D1 (UniProt P61421) | inactive: 0.009
ATP6V1D (UniProt Q9Y5K8) | inactive: -0.023
ARPC5L (UniProt Q9BPX5) | inactive: 0.053
ATP11C (UniProt Q8NB49) | inactive: 0.029
ATP5F1E (UniProt P56381) | inactive: -0.003
ATP5PO (UniProt P48047) | inactive: -0.01
ATG14 (UniProt Q6ZNE5) | inactive: 0.193
ASPM (UniProt Q8IZT6) | inactive: 0
ATP11B (UniProt Q9Y2G3) | inactive: 0.025
ATP6V1B2 (UniProt P21281) | inactive: -0.026
ARL5A (UniProt Q9Y689) | inactive: 0.077
ASF1B (UniProt Q9NVP2) | inactive: -0.51
ARRB1 (UniProt P49407) | inactive: 0
ATP5MG (UniProt O75964) | inactive: -0.004
ARPC4 isoform 3 (UniProt P59998) | inactive: 0.058
ATG13 isoform 5 (UniProt O75143) | inactive: 0.037
ATPAF2 (UniProt Q8N5M1) | inactive: -0.014

compound: C[C@@H](Oc1cc(-c2cnn(C3CCNCC3)c2)cnc1N)c1c(Cl)ccc(F)c1Cl [crizotinib]; experiment: as above
In short: as §1

Target | log2 fold change
ATG4C (UniProt Q96DT6) | inactive: -0.123
ARL6IP5 (UniProt O75915) | inactive: 0.013
ATE1 isoform 2 (UniProt O95260) | inactive: 0.048
ATP5MPL (UniProt P56378) | inactive: 0.089
ATP13A1 (UniProt Q9HD20) | inactive: 0.095
ARNT (UniProt P27540) | inactive: -0.016
ATP5PF isoform 2 (UniProt P18859) | inactive: 0.215
ATP2A2 (UniProt P16615) | inactive: 0.013
ARIH2 (UniProt O95376) | inactive: 0.02
ATP7A isoform 3 (UniProt Q04656) | inactive: 0.11
ATP5F1C (UniProt P36542) | inactive: 0.043
ARMCX3 (UniProt Q9UH62) | inactive: -0.112
ARL6IP1 (UniProt Q15041) | inactive: 0.175
ASDURF (UniProt L0R819) | inactive: 0.044
ATG12 (UniProt O94817) | inactive: -0.114
ASNA1 (UniProt O43681) | inactive: 0.042
ATP5PD (UniProt O75947) | inactive: 0.071
ASMTL (UniProt O95671) | inactive: -0.122
ATN1 (UniProt P54259) | inactive: -0.036

Target | log2 fold change
ARL2 (UniProt P36404) | inactive: 0.002
ASAP1 isoform 2 (UniProt Q9ULH1) | inactive: -0.08
ATP6V0D1 (UniProt P61421) | inactive: -0.131
ATP6V1D (UniProt Q9Y5K8) | inactive: -0.177
ARPC5L (UniProt Q9BPX5) | inactive: 0.066
ATP11C (UniProt Q8NB49) | inactive: -0.03
ATP5F1E (UniProt P56381) | inactive: 0.096
ATP5PO (UniProt P48047) | inactive: 0.065
ASPM (UniProt Q8IZT6) | inactive: 0.039
ATP11B (UniProt Q9Y2G3) | inactive: 0.031
ATP6V1B2 (UniProt P21281) | inactive: -0.153
ARL5A (UniProt Q9Y689) | inactive: -0.029
ASF1B (UniProt Q9NVP2) | inactive: -0.148
ARRB1 (UniProt P49407) | inactive: 0.034
ATP5MG (UniProt O75964) | inactive: 0.078
ARPC4 isoform 3 (UniProt P59998) | inactive: 0.078
ATG13 isoform 5 (UniProt O75143) | inactive: 0.007
ATPAF2 (UniProt Q8N5M1) | inactive: 0.016
